Test results taken from patent publication US6593094B2, “Compositions to enhance the efficacy and safety of bio-pharmaceutical drugs” (priority 1992, dated 2003).
At least one compound was matched to its structure with a doubt left.

Tests used:
[1] = cited from earlier work
[2] = modeling of the response curves of Dilger and Brett / del Castillo and Katz by ΔRH (FIGS. 5, 6); settings: half maximal change in the peak heights of the experimental curves

CC(=O)OCC[N+](C)(C)C [acetylcholine]
diffusion coefficient ([1]; generally accepted value): 6×10−10 m2s−1
maximum peak response ([1]; taken from Dilger and Brett): 100 µM
EC50 ([1]; taken from Dilger and Brett, read-out: half maximal peak response): 20 µM
KF, apparent affinity constant for the diffusional recruitment of receptors [2]: 20 µM
